From publication PMC3798644, “Molecular Basis for Oligomeric-DNA Binding and Episome Maintenance by KSHV LANA” (PLoS Pathogens, 2013) come the findings set out here.

This test deals with T1, FLAG-tagged full-length LANA, wild type (Kaposi's sarcoma-associated herpesvirus (KSHV)), Q76SB0.
T1 chain: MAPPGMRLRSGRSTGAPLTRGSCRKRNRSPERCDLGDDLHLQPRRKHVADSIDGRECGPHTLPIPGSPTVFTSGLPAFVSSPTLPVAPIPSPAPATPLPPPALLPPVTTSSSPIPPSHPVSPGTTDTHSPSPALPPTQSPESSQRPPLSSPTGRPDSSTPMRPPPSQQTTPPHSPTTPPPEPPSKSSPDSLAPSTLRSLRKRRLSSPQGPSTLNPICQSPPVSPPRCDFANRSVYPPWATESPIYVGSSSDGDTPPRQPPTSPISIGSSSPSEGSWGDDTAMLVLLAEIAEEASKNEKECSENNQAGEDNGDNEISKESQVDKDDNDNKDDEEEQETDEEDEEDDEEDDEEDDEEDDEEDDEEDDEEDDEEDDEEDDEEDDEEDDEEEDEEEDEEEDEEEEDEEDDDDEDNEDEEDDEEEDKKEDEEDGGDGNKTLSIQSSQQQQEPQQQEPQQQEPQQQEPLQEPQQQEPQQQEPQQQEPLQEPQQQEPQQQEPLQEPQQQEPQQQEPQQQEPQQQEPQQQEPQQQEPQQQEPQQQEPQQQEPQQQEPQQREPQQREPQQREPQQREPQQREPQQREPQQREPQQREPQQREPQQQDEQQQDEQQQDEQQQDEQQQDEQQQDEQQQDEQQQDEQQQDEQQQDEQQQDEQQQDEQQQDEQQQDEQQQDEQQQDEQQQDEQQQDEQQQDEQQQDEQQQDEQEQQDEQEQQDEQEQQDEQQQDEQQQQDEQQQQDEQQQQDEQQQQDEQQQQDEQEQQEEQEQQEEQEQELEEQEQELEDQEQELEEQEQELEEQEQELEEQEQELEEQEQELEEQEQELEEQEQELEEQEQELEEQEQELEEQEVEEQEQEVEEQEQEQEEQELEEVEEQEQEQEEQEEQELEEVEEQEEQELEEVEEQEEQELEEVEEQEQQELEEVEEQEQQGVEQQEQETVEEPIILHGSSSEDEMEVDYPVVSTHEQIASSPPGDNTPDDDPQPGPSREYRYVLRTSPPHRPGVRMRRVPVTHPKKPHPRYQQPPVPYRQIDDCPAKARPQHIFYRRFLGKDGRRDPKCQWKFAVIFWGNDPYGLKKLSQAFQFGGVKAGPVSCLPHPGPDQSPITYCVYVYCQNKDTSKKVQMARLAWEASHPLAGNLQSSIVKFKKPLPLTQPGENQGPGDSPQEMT
The test can be described thus: native gel or EMSA; agarose gel EMSA; affinity purified full-length FLAG-LANA at ~200 nM with radiolabelled LBS1 or LBS1/2 DNA probe at 2.5 nM; 10 mM HEPES pH 7.9, 10% glycerol, 100 mM KCl, 5 mM MgCl2; oligomeric nucleoprotein complexes on DNA; both purified. To be noted: remark: other sources report otherwise.

These are yes or no findings as the source states them, for the method shown. Some entries that bind do so weakly or less than the wild type. Where a sequence is shown, tags or fusion partners need not be part of it.

B1: FLAG-tagged full-length LANA, wild type, Q76SB0 1-1162 (protein)
chain: MAPPGMRLRSGRSTGAPLTRGSCRKRNRSPERCDLGDDLHLQPRRKHVADSIDGRECGPHTLPIPGSPTVFTSGLPAFVSSPTLPVAPIPSPAPATPLPPPALLPPVTTSSSPIPPSHPVSPGTTDTHSPSPALPPTQSPESSQRPPLSSPTGRPDSSTPMRPPPSQQTTPPHSPTTPPPEPPSKSSPDSLAPSTLRSLRKRRLSSPQGPSTLNPICQSPPVSPPRCDFANRSVYPPWATESPIYVGSSSDGDTPPRQPPTSPISIGSSSPSEGSWGDDTAMLVLLAEIAEEASKNEKECSENNQAGEDNGDNEISKESQVDKDDNDNKDDEEEQETDEEDEEDDEEDDEEDDEEDDEEDDEEDDEEDDEEDDEEDDEEDDEEDDEEEDEEEDEEEDEEEEDEEDDDDEDNEDEEDDEEEDKKEDEEDGGDGNKTLSIQSSQQQQEPQQQEPQQQEPQQQEPLQEPQQQEPQQQEPQQQEPLQEPQQQEPQQQEPLQEPQQQEPQQQEPQQQEPQQQEPQQQEPQQQEPQQQEPQQQEPQQQEPQQQEPQQREPQQREPQQREPQQREPQQREPQQREPQQREPQQREPQQREPQQQDEQQQDEQQQDEQQQDEQQQDEQQQDEQQQDEQQQDEQQQDEQQQDEQQQDEQQQDEQQQDEQQQDEQQQDEQQQDEQQQDEQQQDEQQQDEQQQDEQQQDEQEQQDEQEQQDEQEQQDEQQQDEQQQQDEQQQQDEQQQQDEQQQQDEQQQQDEQEQQEEQEQQEEQEQELEEQEQELEDQEQELEEQEQELEEQEQELEEQEQELEEQEQELEEQEQELEEQEQELEEQEQELEEQEQELEEQEVEEQEQEVEEQEQEQEEQELEEVEEQEQEQEEQEEQELEEVEEQEEQELEEVEEQEEQELEEVEEQEQQELEEVEEQEQQGVEQQEQETVEEPIILHGSSSEDEMEVDYPVVSTHEQIASSPPGDNTPDDDPQPGPSREYRYVLRTSPPHRPGVRMRRVPVTHPKKPHPRYQQPPVPYRQIDDCPAKARPQHIFYRRFLGKDGRRDPKCQWKFAVIFWGNDPYGLKKLSQAFQFGGVKAGPVSCLPHPGPDQSPITYCVYVYCQNKDTSKKVQMARLAWEASHPLAGNLQSSIVKFKKPLPLTQPGENQGPGDSPQEMT
Take B1: the binding result is listed as “binds”.
